Literature values, collected in patent publication US20240108636A1, “COMPOSITIONS FOR TREATMENT OF NEURODEGENERATIVE CONDITIONS” (BIOVIE INC., priority 2021, published 2024).
The name of at least one read-out is uncertain.

Settings: cited from earlier work

Structure (SMILES): C#C[C@]1(O)CC[C@H]2[C@@H]3[C@@H](O)C=C4C[C@@H](O)CC[C@]4(C)[C@H]3CC[C@@]21C [Compound 17-EAT, 17-ethynyl-10R, 13S-dimethyl 2,3,4,7, 8R, 9S, 10, 11, 12, 13, 14S, 15, 16, 17-hexadecahydro-1H-cyclopenta[a]phenanthrene-3R, 7R, 17S-triol]
- Blood-brain barrier permeability: blood-brain barrier permeable
